Measured values from PMC11267267, “Metabolic Recoding of NSUN2‐Mediated m^5C Modification Promotes the Progression of Colorectal Cancer via the NSUN2/YBX1/m^5C‐ENO1 Positive Feedback Loop” (Advanced Science, 2024).

Sequences of proteins named here, by UniProt entry; tags and fusion partners are left off. A change or cut given only in a name is not applied to a line headed by its entry.
UniProt P67809: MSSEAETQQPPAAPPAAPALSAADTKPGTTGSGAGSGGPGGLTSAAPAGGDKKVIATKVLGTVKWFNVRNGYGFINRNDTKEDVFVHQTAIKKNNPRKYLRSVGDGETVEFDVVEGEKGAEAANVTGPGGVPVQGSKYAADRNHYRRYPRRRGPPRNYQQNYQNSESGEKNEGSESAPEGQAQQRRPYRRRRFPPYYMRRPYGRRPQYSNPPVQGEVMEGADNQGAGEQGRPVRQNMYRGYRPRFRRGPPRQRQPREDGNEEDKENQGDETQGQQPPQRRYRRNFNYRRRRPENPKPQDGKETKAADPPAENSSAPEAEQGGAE

Target: YBX1 (CRC cell lysate pull-down) (UniProt P67809)
Experiment: pull-down, MS and western blot
Conditions: m5C at C26; protein in an extract; label: 3' biotin

Sequence: GAUCUCGCCGGCUUUACGUUCACCUCGGUGUCUGCAGCACCCUCCGCUUC [ENO1 [m5C] pull-down probe]
- binding result: binds

For at least one entry, the source does not settle the construct or the ends of the probe. At least one result comes from cells or an extract, where the contact may be indirect.
